# From PubChem BioAssay AID651640 (Broad Institute, 2012)
# Hit rate of the full screen: of about 350,000 compounds, about 6,000 (1.7%) were called active. Inconclusive results, whose numbers are uncertain, are shown with a selection of clear calls. Cut-off read from the data, not from the text of the source: active = CPE inhibition above about 20% (passing the limit was not always enough); inconclusive = no clear call, values can overlap the other calls; tested in BHK-21 cells. A structure can be active in one record and inactive in another.
# Assay: protection of cells from dengue 2 killing – plate reader, single concentration, primary screen (AID 651640);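 note: 0% = median of neutral control wells and 100% = median of positive control wells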
# Conditions: DENV2-infected cells, cytopathic effect rescue, at 9.99 µM, stronger effect = higher value
row,SMILES,CPE inhibition
1,C/C=C/c1ccc([C@@H]2[C@H]3CN(C(=O)Cc4ccncc4)CCCCN3[C@H]2CO)cc1,active: 81.7%
2,C[C@]12CC[C@H]3[C@@H](CCC4=CC(=O)CC[C@@H]43)[C@@H]1CC[C@@H]2O,inconclusive: 64.3%
3,C/C=C/c1ccc(C2[C@@H]3CN(S(C)(=O)=O)C[C@H]2N3)cc1 (some centres undefined),active: 62.5%
4,C1CCC2CCCCC2C1 (centres undefined),active: 33.4%
5,CNC(=O)Oc1ccc(C(=O)N2c3ccccc3NC(=O)C2C)cc1 (centres undefined),inconclusive: 36.6%
6,COC(=O)C1=C(c2ccccc2)C[C@@H]2CC[C@H]1N2C(=O)N1CCC(C)CC1,inconclusive: 87%
7,C=CCOC(=O)C1C(C(=O)O)C2(Cl)C(Cl)=C(Cl)C1(Cl)C2(Cl)Cl (centres undefined),inconclusive: 64.7%
8,COC(=O)C1=C(c2ccc(OC(F)(F)F)cc2)C[C@@H]2CC[C@H]1N2C(=O)N1CCCCC1,active: 48.3%
9,C/C=C/c1ccc([C@@H]2[C@@H](CO)N3CCCCN(C(=O)Cc4ccncc4)C[C@H]23)cc1,inconclusive: 62.1%
10,O=C(O)c1ccc(NC(=O)N2C[C@H]3C[C@@H](C2)c2cccc(=O)n2C3)cc1,inconclusive: 26.7%
11,O=c1[nH]c(=S)[nH]c(O)c1N=Nc1cc(S(=O)(=O)Nc2ccc(Cl)cc2)ccc1Cl,inconclusive: 48.7%
12,Cc1cc(N2CCNC[C@@H]2C)ccc1N1CC[C@H](O)C1,inconclusive: 74.3%
13,Cc1nn(CC(C)C)c(Cl)c1C(=O)NC1CCCC1,inconclusive: 27.6%
14,C[C@]12C[C@H](O)[C@@H](O)C[C@@H]1CC[C@@H]1[C@@H]2CC[C@]2(C)C(=O)CC[C@@H]12,active: 33.4%
15,C/C=C/c1ccc([C@H]2[C@@H](CO)N3CCCCN(C(=O)Cc4ccncc4)C[C@H]23)cc1,inconclusive: 25.4%
16,C[C@H]1CN([C@@H](C)CO)C(=O)CCCn2nncc2CO[C@H]1CN(C)C(=O)Oc1cccc2ccccc12,inconclusive: 28.7%
17,O=c1[nH]c2ccccc2n1C1CCN(C(c2cccs2)c2nnnn2Cc2ccccc2)CC1 (centres undefined),inconclusive: 39.9%
18,CCOC(=O)[C@]12Cc3cc4ccccc4cc3[C@H]1N(Cc1ccccc1)C(=O)c1ccccc12,inconclusive: 20.9%
19,O=C(Cc1cccnc1)N1CCCCN2[C@H](CO)[C@H](c3ccc(C#CC4CC4)cc3)[C@@H]2C1,inactive: -8.8%
20,C[C@@H]1CN([C@H](C)CO)C(=O)CCCn2nncc2CO[C@H]1CN(C)C(=O)Oc1ccc2ccccc2c1,active: 56.4%
21,CCCCN1C(=N)C(CC)(CC)C(=O)NC1=O,active: 23.6%
22,CN1OC[C@@H]2CN[C@H](c3ccc(Br)cc3)C[C@@H]21,active: 25.7%
23,CCOP(=S)(OCC)SCSP(=S)(OCC)OCC,inconclusive: 34%
24,COc1ccc(OC(=O)N(C)C[C@H]2OCc3ccccc3-c3c(n(C)c4ccccc34)C(=O)N([C@@H](C)CO)C[C@H]2C)cc1,inactive: 15.6%
25,O=S(=O)(NC1CCCC1)OCC(Cl)(Cl)Cl,active: 27.4%
26,O=[N+]([O-])c1cccc(O)c1,active: 25.4%
27,COc1ccc(C(=O)NC(=S)N2C[C@H]3C[C@H](C2)c2cccc(=O)n2C3)cc1OC,inconclusive: 24%
28,O=[N+]([O-])c1cc(O)c(O)c([N+](=O)[O-])c1,inconclusive: 20.9%
29,CCOP(=O)(OCC)C(O)c1cccc([N+](=O)[O-])c1 (centres undefined),inconclusive: 30%

# 3 compounds from above, sorted by number of heavy atoms, descending.
row,SMILES,CPE inhibition
17,O=c1[nH]c2ccccc2n1C1CCN(C(c2cccs2)c2nnnn2Cc2ccccc2)CC1 (centres undefined),inconclusive: 39.9%
2,C[C@]12CC[C@H]3[C@@H](CCC4=CC(=O)CC[C@@H]43)[C@@H]1CC[C@@H]2O,inconclusive: 64.3%
23,CCOP(=S)(OCC)SCSP(=S)(OCC)OCC,inconclusive: 34%
